{"source": "paper PMC9010424", "binders": {"B1": {"name": "Dma1-FLAG (protein, UniProt P38823 1-416)", "chain": "MSTNTVPSSPPNQTPPAASGIATSHDHTKFNNPIRLPISISLTINDTPNNNSNNNSVSNGLGILPSRTATSLVVANNGSANGNVGATAAAAATVETNTAPAVNTTKSIRHFIYPPNQVNQTEFSLDIHLPPNTSLPERIDQSTLKRRMDKHGLFSIRLTPFIDTSSTSVANQGLFFDPIIRTAGAGSQIIIGRYTERVREAISKIPDQYHPVVFKSKVISRTHGCFKVDDQGNWFLKDVKSSSGTFLNHQRLSSASTTSKDYLLHDGDIIQLGMDFRGGTEEIYRCVKMKIELNKSWKLKANAFNKEALSRIKNLQKLTTGLEQEDCSICLNKIKPCQAIFISPCAHSWHFHCVRRLVIMNYPQFMCPNCRTNCDLETTLESESESEFENEDEDEPDIEMDIDMEINNNLGVRLVD"}}, "molecular_target": "T1, Mmr1-HA (S. cerevisiae) (UniProt Q06324)", "T1 sequence": "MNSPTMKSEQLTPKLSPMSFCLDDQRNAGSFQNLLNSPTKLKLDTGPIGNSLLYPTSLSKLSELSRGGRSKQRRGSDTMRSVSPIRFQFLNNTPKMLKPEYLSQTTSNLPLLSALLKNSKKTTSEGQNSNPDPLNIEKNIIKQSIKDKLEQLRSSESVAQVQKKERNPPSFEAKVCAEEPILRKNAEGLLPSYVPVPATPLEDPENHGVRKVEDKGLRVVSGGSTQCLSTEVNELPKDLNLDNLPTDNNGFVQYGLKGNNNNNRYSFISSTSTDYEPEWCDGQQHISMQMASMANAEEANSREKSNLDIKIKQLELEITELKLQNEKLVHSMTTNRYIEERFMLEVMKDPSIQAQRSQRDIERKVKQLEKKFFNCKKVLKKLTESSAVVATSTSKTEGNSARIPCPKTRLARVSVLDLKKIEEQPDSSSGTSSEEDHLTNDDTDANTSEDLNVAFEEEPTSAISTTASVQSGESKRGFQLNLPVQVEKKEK", "assay": "co-IP; anti-HA (12CA5) and Protein A Sepharose from lysate of cim3-1 DMA1-FLAG MMR1-HA cells shifted to 37 °C; TBS, solubilised with 1% Triton X-100, washed with TBS 0.1% Tween-20, 4 °C; immunoblot with anti-HA and anti-FLAG", "note": "No constants are given. Whether binding was seen depends on the method and setting. In cells and extracts the contact can be indirect. Some entries that bind do so weakly or less than the wild type. Tags and fused reporters may be left off the sequences shown.", "data": [{"binder": "B1", "values": [{"measurement": "binding", "value": "binds"}]}]}
